Measurements taken from patent US6953794.
No constants are given. Whether binding was seen depends on the method and setting. Some entries that bind do so weakly or less than the wild type.

The chains behind the UniProt entries cited, without tags or fusion partners. Where a name states a change or a piece, a line headed by the entry shows the natural chain unless it says otherwise. A line that says so, or that is headed by a name, gives the form on record, which may keep a tag or linker.
fetal rat tau (P19332, form named): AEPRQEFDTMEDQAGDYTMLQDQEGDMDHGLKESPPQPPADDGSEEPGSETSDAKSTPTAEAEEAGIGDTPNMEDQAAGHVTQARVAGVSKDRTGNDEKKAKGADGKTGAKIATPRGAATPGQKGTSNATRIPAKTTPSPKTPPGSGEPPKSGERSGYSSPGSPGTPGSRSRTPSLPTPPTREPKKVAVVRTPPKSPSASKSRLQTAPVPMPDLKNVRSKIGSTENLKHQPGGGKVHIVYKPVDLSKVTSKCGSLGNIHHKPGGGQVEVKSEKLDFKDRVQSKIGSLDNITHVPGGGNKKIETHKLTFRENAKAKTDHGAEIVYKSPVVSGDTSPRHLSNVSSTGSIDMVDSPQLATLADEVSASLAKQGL
UniProt P10636: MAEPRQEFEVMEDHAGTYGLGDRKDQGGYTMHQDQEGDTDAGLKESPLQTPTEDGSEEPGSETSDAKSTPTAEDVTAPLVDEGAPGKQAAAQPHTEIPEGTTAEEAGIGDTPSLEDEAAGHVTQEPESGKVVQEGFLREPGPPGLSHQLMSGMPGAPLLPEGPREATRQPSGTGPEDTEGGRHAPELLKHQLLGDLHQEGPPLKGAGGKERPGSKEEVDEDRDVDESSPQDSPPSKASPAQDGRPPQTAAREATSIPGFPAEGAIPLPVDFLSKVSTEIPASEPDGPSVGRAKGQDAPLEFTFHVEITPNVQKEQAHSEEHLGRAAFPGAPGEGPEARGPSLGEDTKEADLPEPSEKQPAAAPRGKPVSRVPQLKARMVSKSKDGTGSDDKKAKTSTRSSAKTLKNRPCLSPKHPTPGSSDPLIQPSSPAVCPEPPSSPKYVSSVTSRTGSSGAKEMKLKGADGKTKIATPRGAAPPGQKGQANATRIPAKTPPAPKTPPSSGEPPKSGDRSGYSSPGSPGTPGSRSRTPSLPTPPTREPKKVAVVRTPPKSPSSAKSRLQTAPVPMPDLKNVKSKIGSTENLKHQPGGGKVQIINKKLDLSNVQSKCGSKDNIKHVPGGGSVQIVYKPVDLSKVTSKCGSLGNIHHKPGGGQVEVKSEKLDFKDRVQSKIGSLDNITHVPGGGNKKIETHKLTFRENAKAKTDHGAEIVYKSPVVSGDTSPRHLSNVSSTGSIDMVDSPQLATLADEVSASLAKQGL

Columns and labels:
[1] = target: hyperphosphorylated newborn tau (rat) (UniProt P19332); test: ELISA tau-tau binding assay; hyperphosphorylated newborn tau in the solid phase
fetal rat tau (rat) [2] = target: fetal rat tau (rat) (UniProt P19332); test: ELISA tau-tau binding assay; neonatal tau in the solid phase
fetal rat tau (rat) [3] = target: fetal rat tau (rat) (UniProt P19332); test: ELISA tau-tau binding assay; newborn tau in the solid phase

Measured: binding

full-length recombinant human tau protein (htau40) (from UniProt P10636 2-758)
binds: all assays above
